According to article PMC4407832:

Molecular target: T1, GFP-NS (green fluorescent protein tagged human nucleostemin) (human) (UniProt Q9BVP2)
T1 sequence: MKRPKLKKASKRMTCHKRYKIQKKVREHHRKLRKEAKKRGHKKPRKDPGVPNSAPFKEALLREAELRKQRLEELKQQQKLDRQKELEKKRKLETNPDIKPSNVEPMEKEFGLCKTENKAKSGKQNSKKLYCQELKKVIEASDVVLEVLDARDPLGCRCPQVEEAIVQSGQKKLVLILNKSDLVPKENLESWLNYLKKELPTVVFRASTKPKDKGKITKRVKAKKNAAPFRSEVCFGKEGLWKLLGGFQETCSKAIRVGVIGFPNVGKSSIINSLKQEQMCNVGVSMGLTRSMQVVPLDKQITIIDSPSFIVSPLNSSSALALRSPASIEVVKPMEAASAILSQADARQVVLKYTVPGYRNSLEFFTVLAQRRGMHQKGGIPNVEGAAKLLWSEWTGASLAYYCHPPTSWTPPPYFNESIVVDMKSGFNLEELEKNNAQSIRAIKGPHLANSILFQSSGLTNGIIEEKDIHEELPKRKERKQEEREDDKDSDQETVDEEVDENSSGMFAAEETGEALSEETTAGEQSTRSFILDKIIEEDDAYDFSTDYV
Assay: co-IP; anti-GFP antibody, overnight at 4°C, protein A Plus agarose; lysates of MDA-MB-231 cells transfected with GFP or GFP-NS; immunoblot for GFP, mTOR, FAK and Akt

binding: binds
Substance: Akt kinase (also known as protein kinase B) (human (endogenous in MDA-MB-231)) (enzyme)

No constants are given. Whether binding was seen depends on the method and setting. In cells and extracts the contact can be indirect. Binding can be weak; no strength is given. Where a sequence is shown, tags or fusion partners need not be part of it.
